Data as given in PubChem BioAssay AID504327 (National Center for Advancing Translational Sciences (NCATS), 2011).
The campaign covered roughly 390,000 compounds. About 820 (0.21%) were called active. Inconclusive results, whose numbers are uncertain, are shown with a selection of clear calls. Calls follow the shape of the dose curve; as a rule, active = well fitted inhibition curve with a large enough effect; inconclusive = small, poorly fitted or top-dose-only effect, or another doubt; inactive = no such curve, though single readings can be large or run the other way. Potencies beside an inconclusive call are fits to weak or partial responses and may not hold up.
Potency is read from the fitted curve at half-maximal effect.

Chains of the proteins cited; added tags and fusions are not shown.
UniProt Q92830, whole entry, looked up: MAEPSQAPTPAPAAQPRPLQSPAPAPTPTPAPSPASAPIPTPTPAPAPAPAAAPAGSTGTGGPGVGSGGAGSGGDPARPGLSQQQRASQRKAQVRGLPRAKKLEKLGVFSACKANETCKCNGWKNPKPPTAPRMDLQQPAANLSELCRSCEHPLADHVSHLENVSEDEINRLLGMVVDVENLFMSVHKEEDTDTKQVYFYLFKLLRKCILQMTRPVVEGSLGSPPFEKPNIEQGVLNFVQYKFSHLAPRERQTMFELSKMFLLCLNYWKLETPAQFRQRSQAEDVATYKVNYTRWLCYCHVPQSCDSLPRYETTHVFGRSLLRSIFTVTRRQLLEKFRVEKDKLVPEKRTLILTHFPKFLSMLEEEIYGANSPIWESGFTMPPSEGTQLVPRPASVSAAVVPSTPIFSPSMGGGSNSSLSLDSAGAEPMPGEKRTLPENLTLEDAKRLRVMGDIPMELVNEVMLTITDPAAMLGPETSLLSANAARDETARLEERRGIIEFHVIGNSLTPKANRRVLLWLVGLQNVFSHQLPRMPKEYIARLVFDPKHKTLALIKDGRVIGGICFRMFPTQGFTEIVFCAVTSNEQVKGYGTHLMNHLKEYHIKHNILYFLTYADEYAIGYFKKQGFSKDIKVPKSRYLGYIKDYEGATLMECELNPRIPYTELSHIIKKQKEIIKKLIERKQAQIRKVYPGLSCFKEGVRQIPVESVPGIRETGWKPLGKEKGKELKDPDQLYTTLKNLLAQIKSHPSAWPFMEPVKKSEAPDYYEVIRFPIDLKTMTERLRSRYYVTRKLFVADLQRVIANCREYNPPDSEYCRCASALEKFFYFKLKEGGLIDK

Each compound was assayed against Histone acetyltransferase KAT2A (Homo sapiens) (UniProt Q92830) (assay: qHTS Assay for Inhibitors of GCN5L2). Settings: GCN5L2 HAT assay, ThioGlo1 CoA-SH fluorescence; series mostly up to 58.9 µM.
In short: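 Preincubate 20nM GCN5L2 with compound 15 min, RT → add 50uM ThioGlo1 + 75uM H3(1-25) + 70uM acetyl-CoA → read fluorescence 0 and 20 min. Primary qHTS; fluorescent artifacts likely.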
For `O=C(Nc1cccc(S(=O)(=O)NC2=NCCCCC2)c1)c1cc(-c2ccco2)nc2ccccc12`, the Potency was inconclusive: 1.41 µM [inhibitor, full curve, poor fit]. With `COc1ccc(NC(C)C(=O)N/N=C/c2c(O)ccc3ccccc23)cc1` (configuration not stated) the Potency was inconclusive: 3.55 µM [inhibitor, single point]. `CC(NC(=O)CN1C(=O)NC(Cc2ccccc2)(Cc2ccccc2)C1=O)C12CC3CC(CC(C3)C1)C2` (configuration not stated) was tested, and the Potency was inconclusive: 39.8 µM [inhibitor, single point]. `C=CCn1c(N)cc(=O)nc1SC(C)C(=O)Nc1ccc(C(=O)OCC)cc1` (configuration not stated) was tested, and the Potency was inconclusive: 39.8 µM [inhibitor, single point]. In the case of `CSc1ncc(Cl)c(C(=O)Nc2ccccc2C)n1`, the Potency is reported as “inactive”. For `CCCCSc1nc(C)nc2c1c(=O)n(C)c(=O)n2C`, the Potency was inconclusive: 7.94 µM [inhibitor, single point]. `O=C(Cc1cccs1)N=Nc1c(O)[nH]c2ccc(Br)cc12` was tested, and the Potency was inconclusive: 0.794 µM [inhibitor, single point]. With `Cc1ccc(S(=O)(=O)N2CCOC23CCN(C(=O)C(=O)NCc2ccccc2)CC3)cc1` the Potency was “inactive”. With `CC(=O)C(Sc1nn(C)c(=S)s1)C(=O)Nc1ccccc1` (configuration not stated) the Potency was inconclusive: 25.1 µM [inhibitor, single point]. For `C=CCn1c(SCC(=O)c2ccc(O)c(O)c2)nnc1-c1cccnc1`, the Potency was inconclusive: 0.141 µM [inhibitor, full curve, poor fit]. For `CC1=NN(C(N)=S)C(=O)C1N=Nc1cccc(Cl)c1C` (configuration not stated), the Potency was “inactive”. For `CCOC(=O)/C(C(N)=NCC(C)C)=C(/O)c1ccccc1`, the Potency was inconclusive: 0.631 µM [inhibitor, single point]. For `O=C(N/N=C/c1ccc(F)cc1)c1cc(-c2ccco2)nc2ccccc12`, the Potency was inconclusive: 22.4 µM [inhibitor, partial curve, poor fit]. With `O=C(O)c1ccc2c(=O)n3c(nc2c1)/C(=C/c1ccc(F)cc1)CC3` the Potency was inconclusive: 39.8 µM [inhibitor, single point]. With `O=[N+]([O-])c1ccc(Cl)cc1NCCCN1CCOCC1` the Potency was “inactive”. In the case of `COc1cc(-c2cc(C(=O)NN3CCN(C)CC3)c3ccccc3n2)cc(OC)c1OC`, the Potency is reported as “inactive”. With `CSc1nc(NCc2ccco2)c2sc3nc(C(C)C)c4c(c3c2n1)CC(C)(C)OC4` the Potency was inconclusive: 0.891 µM [inhibitor, full curve]. `O=C(C1CCCN(S(=O)(=O)c2cccc3nsnc23)C1)N1CC=C(c2ccccc2)CC1` (configuration not stated) was tested, and the Potency was inconclusive: 25.1 µM [inhibitor, partial curve, poor fit]. `COc1ccc(Cn2c(CCC(=O)Nc3ccc(CC#N)cc3)nc3cccnc32)cc1` was tested, and the Potency was inconclusive: 35.5 µM [inhibitor, single point]. `N#C/C(=C/c1cccc(C(F)(F)F)c1)c1nc(CCN2C(=O)c3ccccc3C2=O)cs1` was tested, and the Potency was inconclusive: 1.41 µM [inhibitor, partial curve]. `NC(=O)Cn1cc(C(=O)C(=O)N2CCOCC2)c2ccccc21` was tested, and the Potency was inconclusive: 2.24 µM [inhibitor, full curve, poor fit]. In the case of `O=C(O)c1ccc(S(=O)(=O)NCC2CCCCC2)cc1`, the Potency is reported as inconclusive: 4.47 µM [inhibitor, full curve]. For `N#Cc1c(-c2c(Cl)cccc2Cl)noc1/C=C/Nc1ccc(C(=O)O)cc1`, the Potency was inconclusive: 31.6 µM [inhibitor, single point]. For `O=C(CSc1nc2ccccc2s1)Nc1ccc(N2CCOCC2)c(Cl)c1`, the Potency was “inactive”. For `CCNc1ncc2nc(-c3ccccc3)c(=O)n(CCC#N)c2n1`, the Potency was inconclusive: 3.16 µM [inhibitor, full curve]. For `CCOC(=O)CN1C(=O)C2Cc3ccccc3CN2C1=S` (configuration not stated), the Potency was inconclusive: 3.98 µM [inhibitor, single point]. For `O=[N+]([O-])c1ccc(NCCCNS(=O)(=O)c2ccc(Cl)cc2)c(Cl)c1`, the Potency was inconclusive: 1 µM [inhibitor, partial curve, poor fit]. For `CC(=O)N1CCN(c2ccc(NCc3ccc4c(c3)OCO4)cc2)CC1`, the Potency was inconclusive: 0.447 µM [inhibitor, full curve, poor fit]. For `O=C(NN1C(=O)/C(=C/C=C/c2ccco2)SC1=S)c1ccccc1O`, the Potency was inconclusive: 10 µM [inhibitor, partial curve]. In the case of `CO/N=C(\C(=O)N[C@@H]1C(=O)N2C(C(=O)[O-])=C(C[n+]3cccc4c3CCC4)CS[C@H]12)c1csc(N)n1`, the Potency is reported as inconclusive: 31.6 µM [inhibitor, single point]. With `C[n+]1c(/C=C/c2ccc3c(c2)OCO3)ccc2ccccc21` the Potency was inconclusive: 15.8 µM [inhibitor, partial curve]. With `O=C(COC(=O)c1ccc(O)cc1O)N=c1sccn1Cc1ccccc1Cl` the Potency was inconclusive: 39.8 µM [inhibitor, single point]. For `COc1cccc(CN2CCCC(C(=O)Nc3ccc(-c4cscn4)cc3)C2)c1` (configuration not stated), the Potency was inconclusive: 39.8 µM [inhibitor, single point]. For `CCOC(=O)c1ccc(N=c2sc(C(=O)OC)cc(=O)n2Cc2ccco2)cc1`, the Potency was “inactive”. `COc1ccc(S(=O)(=O)N(Cc2cccnc2)Cc2cc3ccccc3[nH]c2=O)cc1` was tested, and the Potency was “inactive”. `CC(=O)N1C(=O)c2cccc3cccc(c23)C(=O)N1C(C)=O` was tested, and the Potency was “inactive”. `Cc1sccc1/C=N/NC(=O)c1ccco1` was tested, and the Potency was inconclusive: 39.8 µM [inhibitor, single point]. With `CCSS(=O)(=O)c1cccc2cccnc12` the Potency was active: 3.16 µM. `CN(C)CCCN(C(=O)c1ccc(S(=O)(=O)N(C)C2CCCCC2)cc1)c1nc2ccc(F)cc2s1` was tested, and the Potency was “inactive”. In the case of `CNc1nc(-c2cccc(NS(C)(=O)=O)c2)nc2ccccc12`, the Potency is reported as inconclusive: 31.6 µM [inhibitor, partial curve]. In the case of `CC1=CC(C2CC(=O)N(c3ccc(C)cc3)C2=O)CC2C(=O)N(c3ccc(C)cc3)C(=O)C12` (configuration not stated), the Potency is reported as inconclusive: 8.91 µM [inhibitor, single point]. In the case of `CCc1nc(NC(=O)NS(=O)(=O)c2ccccc2C(=O)OC)nc(OC)n1`, the Potency is reported as “inactive”.
